Data on 40 compounds can be found in PubChem BioAssay AID2685 (National Center for Advancing Translational Sciences (NCATS), 2010).

The list shows a part of the results. Shown are side measurements of this screen, not its main read-out; they come without a call. Compounds called inactive in the main read-out are mostly missing here. Potencies come from curve fits of mixed quality, noted in brackets.

This assay can be described thus: qHTS Assay for Lipid Storage Modulators in Drosophila S3 Cells.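 As to cell number change: cells counted by Cell Tracker Red CMTPX staining in the red channel.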 The note with it: BODIPY lipid droplet fluorescence, 18-24 h; for cell number change: measured here: cell count max response, cells fed with added oleic acid. An outline of the steps:
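Drosophila S3 cells loaded with oleic acid (400 uM, as added) and compounds at several concentrations; lipid droplets imaged by 488-nm laser-scanning cytometry, 500–530 nm intensity and object ratio to cell channel. Percent activity normalized to 20 uM Triacsin C.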
(In general: In qHTS, concentration-response curves come from the screen itself.)

[1] abbreviates: measured here: cell number channel AC50, cells fed with added oleic acid.
[2] abbreviates: measured here: lipid fluorescence (Fed channel) AC50, cells fed with added oleic acid.

For the compound `C/C=C/c1ccc(OCCCn2cncn2)c(OC)c1`, the cell number change is -10.7%.
Consider `Cc1nn(-c2cccc(Cl)c2)nc1C(=O)O`, for which the cell number change was determined as 65.8%. Further, under setting [1], the concentration at half-maximal activity (AC50) (usually the concentration giving half of the maximal activity seen) is 23.1 µM [rising, single point]. The AC50 under setting [2] is 0.116 µM [falling, single point].
With `CC(C)C[C@H](NC(=O)OC(C)(C)C)C(=O)N[C@@H](CO)[C@H](O)[C@@H]1C[C@@H]1C(=O)N(C)C`, the cell number change turned out to be 19.5%. Under setting [2], the AC50 was 29.1 µM [rising, single point].
Regarding `Cc1oc2cc(Br)c(O)c(Br)c2c1-c1ccccc1`, the cell number change is -53.2%. The AC50 under setting [1] was 29.1 µM [falling, single point]. For the same compound, the half-maximal activity concentration (AC50) under setting [2] was 7.31 µM [falling, partial curve].
For the compound `Cc1nc(-c2ccc(NC(=O)c3ccc(Br)o3)cc2)cs1`, the cell number change is -32.1%. Under setting [1], the AC50 is 2.31 µM [falling, partial curve, poor fit].
For the compound `CCOP(=O)(OCC)C(Nc1cccc([N+](=O)[O-])c1)c1ccc(N(C)C)cc1` (stereo unspecified), the cell number change is -14.7%. The AC50 under setting [2] was 0.00651 µM [falling, full curve, poor fit].
For the compound `O=C(Nc1ccc(O)c(C(=O)O)c1)Oc1ccccc1`, the cell number change came out at 10.6%. Further, under setting [1], the AC50 is 3.66 µM [falling, single point].
Consider `COCCNS(=O)(=O)c1cc(Br)ccc1OC`, for which the cell number change was -137%. In addition, under setting [1], the AC50 is 20.6 µM [falling, partial curve]. For the same compound, the AC50 under setting [2] was 29.1 µM [falling, single point].
`CCOc1ccccc1NC(=O)Cc1cccs1`: the cell number change was -19.3%. In addition, under setting [2], the AC50 is 29.1 µM [rising, single point].
Turning to `O=C(Cn1c(-c2cncs2)nc2ccccc21)NC1CCCC1`, the AC50 under setting [2] is 0.58 µM [rising, single point].
Take `CCOC(=O)C(NC(=O)c1ccccc1)(N1CCOCC1)C(F)(F)F` (stereo unspecified): the cell number change is -20.9%. In addition, the AC50 under setting [2] was 14.6 µM [falling, partial curve].
Consider `O=C(NCc1ccc2c(c1)OCO2)C12CC3CC(CC(C3)C1)C2`, for which the cell number change turned out to be 29%. In addition, the AC50 under setting [2] is 13 µM [rising, partial curve].
As to `Cc1onc(-c2ccccc2Cl)c1C(=O)NCc1nc(-c2ccc(C(F)(F)F)cc2)no1`, the cell number change is -1.63%. For the same compound, the half-maximal activity concentration (AC50) under setting [2] is 29.1 µM [falling, single point].
For `CN(c1ccc([N+](=O)[O-])cc1C(N)=O)C1CCCCC1`, the cell number change turned out to be 3.82%. The AC50 under setting [1] was 0.58 µM [rising, single point].
As to `COc1cccc(/C=C2\SC(=O)N(CCC(=O)N3CCCCC3CCO)C2=O)c1` (stereo unspecified), the cell number change was -0.295%. The half-maximal activity concentration (AC50) under setting [2] is 29.1 µM [falling, single point].
Take `CSCCC(NC(=O)c1ccccc1Br)C(=O)NNC(=O)c1ccncc1` (stereo unspecified): the cell number change was -2.59%. In addition, under setting [2], the AC50 was 0.00651 µM [falling, full curve, poor fit].
Take `CCOC(=O)C1CSc2[nH]c(=O)sc2C1c1ccccc1` (stereo unspecified): the cell number change is -2.77%. Under setting [2], the AC50 is 29.1 µM [rising, single point].
For the compound `CC(C)OCCCNC(=O)CCc1nc(-c2ccccc2)no1`, the cell number change stood at 2.79%.
Turning to `Cc1ccc(/C=N/NC(=O)c2ccc(-n3cccc3)cc2)o1`, the cell number change was -15.6%. Moreover, under setting [2], the AC50 was 29.1 µM [rising, single point].
As for `CCOc1ccc(CCNC(=O)CN2C(=O)NC3(CCc4ccccc43)C2=O)cc1OCC` (stereo unspecified), the cell number change is -48%. Further, the AC50 under setting [1] is 18.4 µM [falling, partial curve]. Moreover, the half-maximal activity concentration (AC50) under setting [2] is 11.6 µM [falling, partial curve, poor fit].
With `COc1ccc(N(C)S(=O)(=O)c2c(C)[nH]c(=O)[nH]c2=O)cc1`, the cell number change was -6.84%.
For `O=C(CN1CC[n+]2c(-c3ccccc3)csc21)c1ccc(Br)cc1`, the cell number change worked out at 17.8%. In addition, the AC50 under setting [1] is 0.00461 µM [rising, full curve, poor fit].
As for `Cc1ccc(NC(=S)NNC(=O)CSc2nnc(-c3ccc(Cl)cc3)n2C2CCCCC2)cc1`, the cell number change was -47.2%. For the same compound, under setting [1], the AC50 is 5.8 µM [falling, full curve].
For the compound `COc1ccccc1NS(=O)(=O)c1cccc(C(=O)NN)c1`, the cell number change is 52.6%. In addition, the AC50 under setting [1] is 13 µM [rising, partial curve]. For the same compound, the AC50 under setting [2] was 29.1 µM [rising, single point].
As for `Cc1cccc(N/N=C2/COC(C)(C)CC2=O)c1`, the cell number change was determined as 34.2%. Also, the AC50 under setting [1] is 10.3 µM [rising, partial curve, poor fit]. Moreover, the AC50 under setting [2] was 9.2 µM [rising, partial curve].
As for `COc1ccc(CNC(=O)Cn2nc(C)c3c(C)n(-c4ccc(C)cc4)nc3c2=O)cc1OC`, the AC50 under setting [1] is 0.058 µM [rising, full curve].
As for `O=C1NC2(CCCCC2)CO1`, the cell number change was determined as 23.3%. Besides, the AC50 under setting [2] was 29.1 µM [rising, single point].
Turning to `CCOCCCNC(=O)CCCC1=NS(=O)(=O)c2ccccc2N1`, under setting [2], the AC50 was 29.1 µM [falling, single point].
In the case of `COc1cccc(CNC(=O)CSc2nc(=O)n(Cc3ccncc3)c3c2CCC3)c1`, the cell number change was determined as 22.8%. The half-maximal activity concentration (AC50) under setting [2] is 5.17 µM [rising, full curve, poor fit].
With `C=CCc1ccccc1OCC(=O)N/N=C/c1ccc(OC(C)=O)cc1OC(C)=O`, the cell number change is 0.109%. Under setting [2], the AC50 was 3.66 µM [rising, single point].
Turning to `Cc1nc2ccccc2c(=O)n1CCCN1CCOCC1`, the cell number change was -13.7%. The AC50 under setting [2] was 0.164 µM [falling, full curve].
For the compound `O=S(=O)(Nc1ccc(N2CCOCC2)cc1)c1c(F)cc(F)cc1Br`, the cell number change worked out at 3.95%.
For `O=C(Nc1ccc(F)cc1)c1ccc(CN2CCc3ccccc3C2)cc1`, under setting [2], the AC50 was 11.6 µM [falling, partial curve].
For `O=C(NCCN1CCOCC1)c1ccc(Cl)c(S(=O)(=O)N2CCCCCC2)c1`, the cell number change is -13.8%.
In the case of `CCC(C)NC(=O)Cn1nc(C(F)(F)F)c2c1CCC2` (stereo unspecified), the cell number change turned out to be 1.07%. For the same compound, the AC50 under setting [2] was 7.31 µM [falling, single point].
Regarding `C=CCn1c(SCC(=O)Nc2ccccc2OC)nnc1-c1ccco1`, the concentration at half-maximal activity (AC50) under setting [1] is 0.731 µM [rising, single point].
In the case of `Cc1ccc(CNC(=O)c2cc3c(-c4ccc(Cl)cc4)nn(C)c3s2)o1`, the cell number change was 50.4%. For the same compound, the AC50 under setting [1] was 18.4 µM [rising, single point]. The AC50 under setting [2] is 6.51 µM [rising, partial curve, poor fit].
Consider `C=CCN=C(NC#N)SCCc1ccccc1`, for which the cell number change is -0.323%. For the same compound, under setting [2], the AC50 was 1.3 µM [rising, full curve, poor fit].
As for `O=C(C1CCCN(S(=O)(=O)c2cnc[nH]2)C1)N1CCN(Cc2ccccc2)CC1` (stereo unspecified), the cell number change came to 9.22%.
In the case of `Cc1nn(CCCC(=O)NCc2ccc(F)cc2)c(C)c1[N+](=O)[O-]`, the cell number change was 1.23%. Also, under setting [2], the AC50 is 23.1 µM [falling, single point].
